Measurements published in patent publication US20110028552A1, “MEXILETINE AMINO ACID AND PEPTIDE PRODRUGS AND USES THEREOF” (priority 2009, published 2011).
Some entries share one result that the patent states for a list of compounds. At least one compound was matched to its structure with a doubt left.

Molecular target: T1, hNav 1.1 channel (Homo sapiens, UniProt P35498)
T1 construct: expressed in transfected cells
Assay: Block of cloned hNav1.1 channel in CHO cells (IonWorks Quattro)
Format: cell-based
Details: 10 Hz block, rounded values
Method: Data was corrected for leak current.
The tonic block was calculated as:
% Block (Tonic)=(1−ITP1,TA/ITP1,Control)×100%,
where ITP1, Control and ITP1, TA are the inward peak Na^+ currents elicited by the TP1 in control and in the presence of a test article, respectively. 10 Hz Block—the frequency-dependent block at stimulation frequency 10 Hz was calculated as: […]
where ITP11, Control and ITP11, TA are the inward peak Na^+ currents elicited by the TP11 in control and in the presence of a test article, respectively. The inactivation state block is defined as the decrease in test pulse (TP12) current amplitude due to the conditioning depolarizing pulse (TP11). The inactivation state block was calculated as:
% Block (inactivation state)=(1−(ITP12,TA/ITP12,TA)×100%,
where ITP12, Control and ITP12, TA are the inward peak Na^+ currents elicited by the TP12 in control and in the presence of a test article, respectively. Concentration-response data for the blocks were fit to an equation of the following form: […]

Cc1cccc(C)c1OCC(C)NC(=O)[C@@H](N)CC[S+](C)C.Cl.[Cl-] (stereo partly drawn) [(S)-2-Amino-N-[2-(2,6-dimethyl-phenoxy)-1-methyl-ethyl]-4-(dimethyl-λ^4-sulfanyl chloride)-butyramide hydrochloride]
IC50: > 1 mM
